According to paper PMC6929984:
No constants are given. Whether binding was seen depends on the method and setting. In cells and extracts the contact can be indirect. Some results given as binding are weak or reduced against the parent protein; the word gives no strength. Each block holds one substance with its values, some of them ahead of it.

The chains behind the UniProt entries cited, without tags or fusion partners.
UniProt P43694: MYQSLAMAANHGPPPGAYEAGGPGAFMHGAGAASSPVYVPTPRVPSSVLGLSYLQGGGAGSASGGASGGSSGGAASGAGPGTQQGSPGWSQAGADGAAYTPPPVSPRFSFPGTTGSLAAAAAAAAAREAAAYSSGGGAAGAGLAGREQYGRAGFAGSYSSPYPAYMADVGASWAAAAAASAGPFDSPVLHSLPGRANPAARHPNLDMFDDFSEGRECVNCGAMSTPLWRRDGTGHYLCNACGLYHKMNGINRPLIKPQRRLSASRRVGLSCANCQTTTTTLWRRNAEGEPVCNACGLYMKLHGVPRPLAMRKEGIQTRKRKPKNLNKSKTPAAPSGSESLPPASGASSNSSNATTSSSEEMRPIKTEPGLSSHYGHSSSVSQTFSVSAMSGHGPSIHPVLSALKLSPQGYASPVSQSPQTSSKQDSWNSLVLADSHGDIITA
UniProt P35222: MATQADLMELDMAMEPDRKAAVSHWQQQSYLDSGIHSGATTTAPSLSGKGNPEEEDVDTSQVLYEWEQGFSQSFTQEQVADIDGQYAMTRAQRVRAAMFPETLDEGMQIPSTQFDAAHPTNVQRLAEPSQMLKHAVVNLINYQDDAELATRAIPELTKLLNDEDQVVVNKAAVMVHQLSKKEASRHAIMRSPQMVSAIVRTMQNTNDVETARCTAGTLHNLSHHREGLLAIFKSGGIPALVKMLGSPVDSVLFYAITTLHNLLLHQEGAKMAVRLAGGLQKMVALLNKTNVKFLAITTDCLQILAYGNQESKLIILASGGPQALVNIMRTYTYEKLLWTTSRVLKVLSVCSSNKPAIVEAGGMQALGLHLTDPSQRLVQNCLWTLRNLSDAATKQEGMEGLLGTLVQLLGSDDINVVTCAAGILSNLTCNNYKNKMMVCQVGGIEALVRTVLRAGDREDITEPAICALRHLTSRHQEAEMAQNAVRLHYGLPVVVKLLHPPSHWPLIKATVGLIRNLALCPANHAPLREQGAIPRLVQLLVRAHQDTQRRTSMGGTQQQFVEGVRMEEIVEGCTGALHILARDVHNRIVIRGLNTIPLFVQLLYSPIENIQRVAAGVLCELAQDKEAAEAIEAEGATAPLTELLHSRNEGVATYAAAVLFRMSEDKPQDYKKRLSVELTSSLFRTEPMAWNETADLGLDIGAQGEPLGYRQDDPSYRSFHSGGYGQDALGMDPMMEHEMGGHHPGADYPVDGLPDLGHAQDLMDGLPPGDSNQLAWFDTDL
UniProt Q9UJU2: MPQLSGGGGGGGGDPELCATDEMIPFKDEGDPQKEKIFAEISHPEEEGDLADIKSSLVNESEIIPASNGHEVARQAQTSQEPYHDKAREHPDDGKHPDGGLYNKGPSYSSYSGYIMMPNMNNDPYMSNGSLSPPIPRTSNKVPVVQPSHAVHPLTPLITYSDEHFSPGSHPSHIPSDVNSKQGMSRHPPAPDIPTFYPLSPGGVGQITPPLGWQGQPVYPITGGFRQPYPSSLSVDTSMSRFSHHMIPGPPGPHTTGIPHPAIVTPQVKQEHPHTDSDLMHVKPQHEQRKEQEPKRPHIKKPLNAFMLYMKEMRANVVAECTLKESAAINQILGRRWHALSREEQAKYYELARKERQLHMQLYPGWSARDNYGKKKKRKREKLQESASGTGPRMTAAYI
UniProt P36402: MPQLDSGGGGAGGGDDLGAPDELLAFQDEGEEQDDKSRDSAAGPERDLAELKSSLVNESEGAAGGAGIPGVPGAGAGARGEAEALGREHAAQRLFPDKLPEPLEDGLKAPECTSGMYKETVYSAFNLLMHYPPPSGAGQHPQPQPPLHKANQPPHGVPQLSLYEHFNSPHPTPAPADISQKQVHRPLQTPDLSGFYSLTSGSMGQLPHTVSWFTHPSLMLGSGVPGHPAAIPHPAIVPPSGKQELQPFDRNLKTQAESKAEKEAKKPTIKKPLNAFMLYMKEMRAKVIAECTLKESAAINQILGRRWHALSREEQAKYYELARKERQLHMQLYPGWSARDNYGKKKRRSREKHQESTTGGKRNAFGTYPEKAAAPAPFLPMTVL

Experiments:
[1] = target: Myc tagged full-length GATA4 (human) (UniProt P43694); experiment: co-IP; HEK293 cells (2×10^6) transfected with the indicated Myc- and FLAG-tagged plasmids (5 mg each (so in the source)); NP-40 lysis buffer; immunoblot (Figure 3E, 3F)
[2] = target: β-catenin, endogenous in HepG2 / HepG2i cells (human (endogenous in HepG2)) (UniProt P35222); experiment: co-IP; endogenous proteins from 5×10^7 HepG2 cells; reciprocal, with anti-GATA4 or anti-β-catenin; immunoblot
[3] = target: β-catenin overexpressed in HEK293 cells (tag not told for the experiment) (human) (UniProt P35222); experiment: co-IP; β-catenin with LEF1 or TCF1 in HEK293 cells, with or without ectopically overexpressed GATA4 (Figure S4H, S4I)
[4] = target: β-catenin, endogenous in HepG2 / HepG2i cells (human (endogenous in HepG2)) (UniProt P35222); experiment: co-IP; HepG2i cells (5×10^7) treated with or without DOX for 48 hours; immunoprecipitation with anti-β-catenin antibody; immunoblot for LEF1 and TCF1
[5] = target: β-catenin-N-luciferase (human) (UniProt P35222); experiment: split reporter; split firefly luciferase (the paper: bimolecular fluorescence complementation assay): β-catenin-N-luciferase (0.1 mg as printed) with LEF1-C-luciferase or TCF1-C-luciferase, with or without GATA4; luciferase read 24 hours after transfection; HEK 293 cells in the legend, HepG2 in the text
[6] = target: GATA4 overexpressed in HEK293 cells (tag not told for the experiment) (human) (UniProt P43694); experiment: co-IP; GATA4 and β-catenin co-overexpressed in HEK293 cells; GATA4 precipitated (Figure S3B)
[7] = target: GATA4, bacterially expressed (GST pull-down) (human) (UniProt P43694); experiment: pull-down; in vitro GST pull-down with bacterially expressed GATA4 and β-catenin; which one carried GST is not told
[8] = target: GATA4, endogenous in HepG2 cells (human (endogenous in HepG2)) (UniProt P43694); experiment: co-IP; endogenous proteins from 5×10^7 HepG2 cells; reciprocal, with anti-GATA4 or anti-β-catenin; immunoblot
[9] = target: GATA4 ectopically overexpressed in HepG2 cells (human) (UniProt P43694); experiment: co-IP; GATA4 ectopically overexpressed in HepG2 cells; GATA4 precipitated, endogenous β-catenin detected (Figure S3C)

binding [1]: binds
Substance: FLAG tagged β-catenin (from UniProt P35222 1-781)

binding [3]: binds
Substance: LEF1 overexpressed in HEK293 cells (from UniProt Q9UJU2 1-399)

binding [3]: binds
Substance: TCF1 overexpressed in HEK293 cells (from UniProt P36402 1-384)

binding [4]: binds
Substance: TCF1, endogenous in HepG2i cells (from UniProt P36402 1-384)

binding [7]: binds
Substance: β-catenin, bacterially expressed (GST pull-down) (from UniProt P35222 1-781)

Further lines, the substance ahead of its results:

Substance: GATA4, endogenous in HepG2 cells (from UniProt P43694 1-442)
binding [2]: binds

Substance: LEF1, endogenous in HepG2i cells (from UniProt Q9UJU2 1-399)
binding [4]: binds

Substance: LEF1-C-luciferase (from UniProt Q9UJU2 1-399)
binding [5]: binds

Substance: β-catenin overexpressed in HEK293 cells (tag not told for the experiment) (from UniProt P35222 1-781)
binding [6]: binds

Substance: β-catenin, endogenous in HepG2 / HepG2i cells (from UniProt P35222 1-781)
binding [8]: binds | binding [9]: binds
